No constants are given. Whether binding was seen depends on the method and setting. Binding seen in cells or lysates may run through a third protein. Some binding calls cover weakened binding; strength is not graded here.

By UniProt entry, the sequences of proteins in these tests, tags left out.
UniProt Q8BPU7: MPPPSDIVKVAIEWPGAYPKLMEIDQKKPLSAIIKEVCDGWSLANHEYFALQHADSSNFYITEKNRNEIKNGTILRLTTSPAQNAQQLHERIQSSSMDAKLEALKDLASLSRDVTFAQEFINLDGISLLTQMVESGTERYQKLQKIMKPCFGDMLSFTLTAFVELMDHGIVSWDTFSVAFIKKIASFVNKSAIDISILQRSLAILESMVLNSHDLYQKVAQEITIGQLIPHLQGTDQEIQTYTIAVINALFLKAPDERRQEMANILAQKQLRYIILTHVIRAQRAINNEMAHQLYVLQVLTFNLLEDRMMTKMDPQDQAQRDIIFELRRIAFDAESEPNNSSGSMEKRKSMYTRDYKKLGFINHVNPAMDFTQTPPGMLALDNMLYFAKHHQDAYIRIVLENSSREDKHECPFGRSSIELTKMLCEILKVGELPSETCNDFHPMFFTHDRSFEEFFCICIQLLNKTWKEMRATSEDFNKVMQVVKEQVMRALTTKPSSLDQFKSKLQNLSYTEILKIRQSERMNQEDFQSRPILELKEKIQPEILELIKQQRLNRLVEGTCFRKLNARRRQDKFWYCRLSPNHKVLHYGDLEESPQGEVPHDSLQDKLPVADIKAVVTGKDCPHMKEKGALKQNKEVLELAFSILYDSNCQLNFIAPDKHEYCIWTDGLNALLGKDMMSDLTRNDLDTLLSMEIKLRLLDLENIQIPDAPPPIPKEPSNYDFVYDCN
UniProt Q8C3J5: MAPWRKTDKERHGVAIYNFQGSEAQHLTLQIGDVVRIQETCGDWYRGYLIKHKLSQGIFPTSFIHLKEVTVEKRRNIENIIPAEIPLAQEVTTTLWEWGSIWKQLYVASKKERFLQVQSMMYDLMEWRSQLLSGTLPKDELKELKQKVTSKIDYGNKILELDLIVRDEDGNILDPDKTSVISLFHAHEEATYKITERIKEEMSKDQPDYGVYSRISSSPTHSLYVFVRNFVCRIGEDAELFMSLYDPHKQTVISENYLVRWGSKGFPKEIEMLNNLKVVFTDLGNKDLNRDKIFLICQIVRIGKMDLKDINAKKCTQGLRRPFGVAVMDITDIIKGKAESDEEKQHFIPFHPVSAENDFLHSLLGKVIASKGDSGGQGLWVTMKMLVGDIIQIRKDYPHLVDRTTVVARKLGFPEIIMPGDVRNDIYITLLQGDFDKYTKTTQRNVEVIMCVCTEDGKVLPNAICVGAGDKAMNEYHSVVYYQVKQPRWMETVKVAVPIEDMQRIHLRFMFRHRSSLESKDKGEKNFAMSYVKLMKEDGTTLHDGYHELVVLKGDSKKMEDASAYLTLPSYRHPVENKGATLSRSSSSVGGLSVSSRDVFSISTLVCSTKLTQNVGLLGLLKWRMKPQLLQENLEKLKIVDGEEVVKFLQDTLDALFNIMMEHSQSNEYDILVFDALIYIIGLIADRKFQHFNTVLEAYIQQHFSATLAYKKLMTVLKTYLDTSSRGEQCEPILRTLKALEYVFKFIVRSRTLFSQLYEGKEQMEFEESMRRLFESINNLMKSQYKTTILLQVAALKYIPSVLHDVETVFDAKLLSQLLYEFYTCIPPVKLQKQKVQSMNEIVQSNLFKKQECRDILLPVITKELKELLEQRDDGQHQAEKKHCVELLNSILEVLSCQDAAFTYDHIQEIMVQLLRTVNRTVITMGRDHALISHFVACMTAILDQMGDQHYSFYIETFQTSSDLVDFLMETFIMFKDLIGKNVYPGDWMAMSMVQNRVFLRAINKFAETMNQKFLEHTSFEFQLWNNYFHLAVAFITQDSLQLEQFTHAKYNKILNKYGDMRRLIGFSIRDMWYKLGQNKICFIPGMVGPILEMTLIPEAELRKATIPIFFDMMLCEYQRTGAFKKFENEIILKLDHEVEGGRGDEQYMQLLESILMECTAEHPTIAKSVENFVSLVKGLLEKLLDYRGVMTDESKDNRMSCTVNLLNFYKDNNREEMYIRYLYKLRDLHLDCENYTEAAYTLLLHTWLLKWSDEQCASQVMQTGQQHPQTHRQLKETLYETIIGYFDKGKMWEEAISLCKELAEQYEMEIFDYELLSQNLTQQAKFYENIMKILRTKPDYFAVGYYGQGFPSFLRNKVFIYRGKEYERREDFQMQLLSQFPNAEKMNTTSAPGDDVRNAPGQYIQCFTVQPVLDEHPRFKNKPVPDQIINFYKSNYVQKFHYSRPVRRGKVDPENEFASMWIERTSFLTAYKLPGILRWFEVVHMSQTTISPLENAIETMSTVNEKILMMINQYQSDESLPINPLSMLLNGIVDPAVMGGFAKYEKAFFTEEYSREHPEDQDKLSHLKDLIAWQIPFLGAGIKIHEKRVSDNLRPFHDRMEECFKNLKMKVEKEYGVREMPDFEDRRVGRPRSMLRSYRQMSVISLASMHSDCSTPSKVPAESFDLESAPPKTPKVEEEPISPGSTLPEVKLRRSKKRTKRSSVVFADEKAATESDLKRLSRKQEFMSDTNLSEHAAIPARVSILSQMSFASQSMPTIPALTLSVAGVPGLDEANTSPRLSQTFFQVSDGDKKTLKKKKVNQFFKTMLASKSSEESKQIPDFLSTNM

Test [1] has as its target T1, CD11c (integrin αX) (mouse (endogenous in bone marrow neutrophils)) (UniProt Q9QXH4).
T1 sequence: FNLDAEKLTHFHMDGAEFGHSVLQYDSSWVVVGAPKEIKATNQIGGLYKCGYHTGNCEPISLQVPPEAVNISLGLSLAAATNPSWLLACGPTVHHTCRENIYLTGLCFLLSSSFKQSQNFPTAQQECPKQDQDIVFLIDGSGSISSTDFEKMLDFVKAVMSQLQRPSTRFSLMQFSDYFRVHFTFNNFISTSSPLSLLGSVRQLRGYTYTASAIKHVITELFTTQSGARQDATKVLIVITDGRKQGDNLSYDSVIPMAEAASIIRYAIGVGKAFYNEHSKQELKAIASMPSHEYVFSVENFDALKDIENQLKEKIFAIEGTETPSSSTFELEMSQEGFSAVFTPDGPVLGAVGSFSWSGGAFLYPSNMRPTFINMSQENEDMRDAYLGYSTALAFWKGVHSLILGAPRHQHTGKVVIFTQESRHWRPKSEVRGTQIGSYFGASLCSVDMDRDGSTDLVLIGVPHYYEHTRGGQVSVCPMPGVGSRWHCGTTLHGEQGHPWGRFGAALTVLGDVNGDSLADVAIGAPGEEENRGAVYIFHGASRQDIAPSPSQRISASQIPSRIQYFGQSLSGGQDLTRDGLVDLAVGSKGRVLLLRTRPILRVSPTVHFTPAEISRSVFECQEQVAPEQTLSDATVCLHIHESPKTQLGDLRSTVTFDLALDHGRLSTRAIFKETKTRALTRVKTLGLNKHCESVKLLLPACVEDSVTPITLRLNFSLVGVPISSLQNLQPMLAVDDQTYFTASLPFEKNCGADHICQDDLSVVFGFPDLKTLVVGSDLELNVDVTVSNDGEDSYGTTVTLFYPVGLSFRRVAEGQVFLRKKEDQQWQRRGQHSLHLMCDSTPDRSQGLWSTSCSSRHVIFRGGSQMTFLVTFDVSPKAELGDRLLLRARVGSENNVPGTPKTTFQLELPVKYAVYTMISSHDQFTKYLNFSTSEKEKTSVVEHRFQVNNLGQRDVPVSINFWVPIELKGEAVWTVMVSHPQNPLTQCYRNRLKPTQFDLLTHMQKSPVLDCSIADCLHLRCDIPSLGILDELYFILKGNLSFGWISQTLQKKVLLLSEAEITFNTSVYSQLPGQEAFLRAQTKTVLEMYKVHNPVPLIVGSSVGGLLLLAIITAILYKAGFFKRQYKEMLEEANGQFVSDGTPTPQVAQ
Description: co-IP; lysates (RIPA) of mouse WT mature neutrophils with or without PMA stimulation; precipitated with anti-mouse CD11c antibodies (97585, N418) on Dynabeads Protein A, 1 h at room temperature; blot.

Test [2] deals with ELMO1 (Engulfment and Cell Motility 1) (mouse (endogenous in bone marrow neutrophils)) (UniProt Q8BPU7). In words: co-IP; lysates (RIPA) of mouse WT and CD11c KO mature neutrophils stimulated with PMA; precipitated with anti-ELMO1 antibody on Dynabeads Protein A; probed with anti-DOCK2 antibody.

With “Dedicator of Cytokinesis 2 (DOCK2) (from UniProt Q8C3J5 1-1828)”, the binding result in test [1] and in test [2] was “binds” throughout. As to “ELMO1 (Engulfment and Cell Motility 1) (from UniProt Q8BPU7 1-727)”, the binding result in test [1] is given as “binds”.

(Values after article PMC12626831.)
